The target of assay [1] is T1, full-length Tsr2 (NMR) (S. cerevisiae (yeast)) (UniProt Q06672).
T1 sequence (chain, 13C,15N-labeled): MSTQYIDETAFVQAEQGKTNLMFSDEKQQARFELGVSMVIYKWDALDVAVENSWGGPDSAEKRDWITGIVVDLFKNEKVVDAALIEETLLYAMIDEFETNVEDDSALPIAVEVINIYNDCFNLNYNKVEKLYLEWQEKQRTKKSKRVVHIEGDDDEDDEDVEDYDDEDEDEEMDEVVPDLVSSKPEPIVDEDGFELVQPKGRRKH
The assay is described as follows: NMR chemical shift perturbation; 13C,15N-labeled Tsr2:eS26 complex made by co-expression, compared with free full-length Tsr2; 303.15 K, 20 mM sodium phosphate pH 7.0, 1 mM DTT, 10 μM EDTA; both purified.

By UniProt entry, the sequences of proteins in these tests, tags left out. Where a name states a change or a piece, a line headed by the entry shows the natural chain unless it says otherwise. Chains listed by the source or under a name are the forms on record and can include a tag or linker.
UniProt Q12055: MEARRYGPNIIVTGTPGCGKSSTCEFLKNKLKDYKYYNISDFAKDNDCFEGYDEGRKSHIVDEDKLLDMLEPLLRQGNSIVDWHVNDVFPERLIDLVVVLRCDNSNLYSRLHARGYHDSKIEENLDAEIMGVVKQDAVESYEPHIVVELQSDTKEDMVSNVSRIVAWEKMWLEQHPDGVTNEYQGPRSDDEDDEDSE
UniProt P39938: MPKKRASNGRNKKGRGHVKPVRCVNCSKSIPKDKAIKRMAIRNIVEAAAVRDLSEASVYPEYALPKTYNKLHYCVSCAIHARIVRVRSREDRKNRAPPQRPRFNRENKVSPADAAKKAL
eS26^ΔESS1-FLAG (P39938, form named): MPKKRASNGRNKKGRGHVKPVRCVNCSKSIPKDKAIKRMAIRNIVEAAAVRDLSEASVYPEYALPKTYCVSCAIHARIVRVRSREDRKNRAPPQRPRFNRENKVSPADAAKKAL
eS26^ΔESS1ΔESS2-FLAG (P39938, form named): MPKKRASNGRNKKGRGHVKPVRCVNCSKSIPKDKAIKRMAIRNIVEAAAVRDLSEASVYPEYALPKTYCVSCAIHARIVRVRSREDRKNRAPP

Assay [2] addresses T2, Tsr2-N (two-hybrid) (S. cerevisiae (yeast)) (UniProt Q06672).
T2 sequence: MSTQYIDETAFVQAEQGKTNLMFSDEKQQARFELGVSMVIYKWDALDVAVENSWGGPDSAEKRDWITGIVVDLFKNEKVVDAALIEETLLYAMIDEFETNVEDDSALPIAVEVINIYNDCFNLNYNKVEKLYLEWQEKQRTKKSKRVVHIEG
The assay can be described thus: two-hybrid; Supplementary Fig. 1a; set-up not shown.

Assay [3] concerns the target T3, GST-Kap123 (yeast) (UniProt P40069).
T3 sequence: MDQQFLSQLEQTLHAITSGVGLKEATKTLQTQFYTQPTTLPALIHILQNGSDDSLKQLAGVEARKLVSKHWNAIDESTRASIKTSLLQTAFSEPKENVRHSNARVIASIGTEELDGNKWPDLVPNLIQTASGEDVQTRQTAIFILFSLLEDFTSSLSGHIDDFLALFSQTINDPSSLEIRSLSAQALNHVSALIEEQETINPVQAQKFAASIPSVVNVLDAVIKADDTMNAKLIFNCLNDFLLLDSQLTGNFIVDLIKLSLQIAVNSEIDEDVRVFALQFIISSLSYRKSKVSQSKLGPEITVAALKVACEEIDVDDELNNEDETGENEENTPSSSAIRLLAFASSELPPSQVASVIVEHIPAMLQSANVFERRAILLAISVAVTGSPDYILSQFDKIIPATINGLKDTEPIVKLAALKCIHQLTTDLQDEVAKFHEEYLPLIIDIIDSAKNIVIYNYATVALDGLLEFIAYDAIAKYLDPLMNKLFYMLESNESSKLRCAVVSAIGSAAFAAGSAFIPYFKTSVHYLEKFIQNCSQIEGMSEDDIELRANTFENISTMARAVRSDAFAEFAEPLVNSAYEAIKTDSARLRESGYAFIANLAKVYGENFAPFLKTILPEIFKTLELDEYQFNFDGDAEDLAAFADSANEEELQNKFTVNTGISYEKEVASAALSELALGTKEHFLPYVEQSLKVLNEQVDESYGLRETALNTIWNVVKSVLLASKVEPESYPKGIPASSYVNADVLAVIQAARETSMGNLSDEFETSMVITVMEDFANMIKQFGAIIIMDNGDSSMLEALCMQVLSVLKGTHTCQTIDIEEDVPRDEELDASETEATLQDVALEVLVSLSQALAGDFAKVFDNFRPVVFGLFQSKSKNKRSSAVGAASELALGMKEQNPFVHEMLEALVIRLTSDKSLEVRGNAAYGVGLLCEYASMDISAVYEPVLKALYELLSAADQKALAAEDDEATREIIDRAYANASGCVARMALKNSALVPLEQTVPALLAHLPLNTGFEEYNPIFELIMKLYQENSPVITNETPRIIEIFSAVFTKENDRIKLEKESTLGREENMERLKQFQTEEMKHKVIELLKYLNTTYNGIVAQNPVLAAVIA
The assay is described as follows: pull-down; GST-Kap123 on Glutathione Sepharose incubated with eS26^FLAG variants in the presence of competing E. coli lysates; western with α-FLAG; only the target purified.

The target in assay [4] is Fap7:uS11 complex (UniProt Q12055). The assay can be described thus: pull-down; recruitment of eS26 to the Fap7:uS11 complex and extraction by Tsr2, Supplementary Fig. 7b; set-up not shown.
Assay [5] concerns the target T4, Tsr2-N (recombinant, binding assays) (S. cerevisiae (yeast)) (UniProt Q06672).
T4 sequence: T2 sequence
The assay can be described thus: pull-down; in vitro binding assay, Supplementary Fig. 1b lane 6; set-up not shown.

Results are given in words; binding and its absence hold for the method and conditions named. For part of these data: Binding seen in cells or lysates may run through a third protein. Some binding calls cover weakened binding; strength is not graded here. For part of these data: Sequences can lack the tags named with a protein.

As to “eS26 (NMR, co-expressed with Tsr2) (from UniProt P39938 1-119)”, the binding result in assay [1] was “binds”. As for “eS26 (two-hybrid) (from UniProt P39938 1-119)”, in assay [2], the binding result is given as “binds”.

Take eS26^FLAG (from UniProt P39938 1-119): the binding result in assay [3] is recorded as “binds”.

“eS26^ΔESS1-FLAG (from UniProt P39938 1-119)”: the binding entry in assay [3] is “binds”.

As for “eS26^ΔESS1ΔESS2-FLAG (from UniProt P39938 1-119)”, the binding result in assay [3] is listed as “binds”. Consider “eS26^ΔESS2-FLAG (from UniProt P39938 1-119)”, for which the binding result in assay [4] and in assay [3] was “binds” each time. As for “recombinant WT eS26 (from UniProt P39938 1-119)”, the binding result in assay [5] and in assay [4] was “binds” throughout.

Source of the values: paper PMC6131548.
